Data reported in PMC4648439.
These are yes or no findings as the source states them, for the method shown. In cells and extracts the contact can be indirect. Some binding calls cover weakened binding; strength is not graded here. For part of these data: Sequences can lack the tags named with a protein. Values belong to the binder of their own block, whether it stands above or below them.

How the values were obtained:
[1] = biological target: T1, myc-His-tagged flotillin-1 (pEF1/myc-His-Flot-1) (UniProt O75955); experiment: co-IP; 293T cells transfected with pEF1/myc-His-Flot-1 and pFLAG-CMV-Flot-2, lysed after 48 h; lysates pre-cleared, then incubated with agarose IgA/IgG beads with anti-His or anti-Flag overnight at 4 °C; immunoblot
T1 sequence: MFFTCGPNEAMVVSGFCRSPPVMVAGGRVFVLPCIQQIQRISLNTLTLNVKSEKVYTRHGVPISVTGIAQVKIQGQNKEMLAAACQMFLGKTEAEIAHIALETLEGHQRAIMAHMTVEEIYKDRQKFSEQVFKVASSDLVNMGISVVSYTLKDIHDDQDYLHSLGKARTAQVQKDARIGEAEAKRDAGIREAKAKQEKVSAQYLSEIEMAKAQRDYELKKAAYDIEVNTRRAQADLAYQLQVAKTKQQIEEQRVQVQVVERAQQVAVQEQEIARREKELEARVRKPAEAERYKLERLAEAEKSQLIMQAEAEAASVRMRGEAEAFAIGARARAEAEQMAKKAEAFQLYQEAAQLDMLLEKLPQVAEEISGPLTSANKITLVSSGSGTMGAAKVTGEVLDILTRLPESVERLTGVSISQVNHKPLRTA

[2] = biological target: T2, flotillin-1, endogenous in 5-8F cells (human (endogenous in 5-8F)) (UniProt O75955); experiment: co-IP; endogenous proteins in 5-8F cell lysate; immunoprecipitated with anti-Flot-1 on agarose IgA/IgG beads, immunoblot for Flot-2
T2 sequence: T1 sequence

[3] = biological target: T3, Flag-tagged flotillin-2 (pFLAG-CMV-Flot-2) (human (Flot-2 ORF amplified from 5-8F cell cDNA)) (UniProt Q14254); experiment: co-IP; 293T cells transfected with pEF1/myc-His-Flot-1 and pFLAG-CMV-Flot-2, lysed after 48 h; lysates pre-cleared, then incubated with agarose IgA/IgG beads with anti-His or anti-Flag overnight at 4 °C; immunoblot
T3 sequence: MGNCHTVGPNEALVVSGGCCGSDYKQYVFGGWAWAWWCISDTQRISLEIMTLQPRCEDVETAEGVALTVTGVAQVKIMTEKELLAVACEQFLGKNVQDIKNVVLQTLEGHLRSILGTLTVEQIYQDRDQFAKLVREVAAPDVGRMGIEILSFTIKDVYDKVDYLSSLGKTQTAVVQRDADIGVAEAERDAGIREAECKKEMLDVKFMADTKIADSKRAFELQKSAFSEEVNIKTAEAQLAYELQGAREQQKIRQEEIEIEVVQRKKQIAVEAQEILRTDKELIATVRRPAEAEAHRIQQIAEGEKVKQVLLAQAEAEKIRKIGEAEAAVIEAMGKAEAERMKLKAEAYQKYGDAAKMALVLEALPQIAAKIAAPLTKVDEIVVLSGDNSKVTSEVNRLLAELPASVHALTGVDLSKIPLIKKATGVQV

binding [1]: binds
B1: Flag-tagged flotillin-2 (pFLAG-CMV-Flot-2) (protein, UniProt Q14254 1-428)
chain: T3 sequence

binding [2]: binds
B2: flotillin-2, endogenous in 5-8F cells (protein, UniProt Q14254 1-428)
chain: T3 sequence

binding [3]: binds
B3: myc-His-tagged flotillin-1 (pEF1/myc-His-Flot-1) (protein, UniProt O75955 1-427)
chain: T1 sequence
